Measured values from paper PMC10570026.
Results are given in words; binding and its absence hold for the method and conditions named. In cells and extracts the contact can be indirect. Here binding means that the protein was enriched with, or labelled near, the bait; the list need not be complete.

Molecular target: T1, Xenopus laevis DONSON (Xenopus laevis (endogenous in egg extract)) (UniProt Q5U4U4)
T1 sequence: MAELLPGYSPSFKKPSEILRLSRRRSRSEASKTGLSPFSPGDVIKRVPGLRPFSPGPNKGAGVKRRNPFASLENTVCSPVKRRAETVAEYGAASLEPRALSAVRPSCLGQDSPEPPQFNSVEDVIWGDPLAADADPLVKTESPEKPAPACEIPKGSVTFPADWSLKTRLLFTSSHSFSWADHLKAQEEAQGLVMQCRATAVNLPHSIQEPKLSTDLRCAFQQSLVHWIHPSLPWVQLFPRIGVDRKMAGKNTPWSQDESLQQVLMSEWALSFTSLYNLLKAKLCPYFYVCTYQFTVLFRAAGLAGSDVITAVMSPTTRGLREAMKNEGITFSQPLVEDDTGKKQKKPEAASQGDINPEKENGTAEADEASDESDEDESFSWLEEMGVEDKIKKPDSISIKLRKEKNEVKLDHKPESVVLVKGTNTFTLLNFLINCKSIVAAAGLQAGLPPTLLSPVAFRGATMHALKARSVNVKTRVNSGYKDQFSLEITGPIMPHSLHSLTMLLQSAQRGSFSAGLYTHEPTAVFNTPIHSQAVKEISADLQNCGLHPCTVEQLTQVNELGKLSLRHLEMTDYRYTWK
Test: affinity purification with mass spectrometry; large scale α-DONSON immunoprecipitation from chromatin of egg extract with p97 inhibitor NMS873 or aphidicolin + caffeine, 60 min; LC/MS/MS

Substance | binding
RecQ4 | binds
TopBP1 | binds
